# Reference: patent publication US12116370B2, “Condensed heterocyclic compound having a bridgehead nitrogen atom or salt thereof, agricultural or horticultural insecticide comprising the compound, and method for using the insecticide” (Nihon Nohyaku Co., Ltd., priority 2019, dated 2024)
# Some results were stated once for a whole list of compounds, not compound by compound.
# Assays:
# Assay type in all cases: in vivo
# [1] = system: Myzus persicae; experiment: Test for control efficacy on Myzus persicae; settings: 500 ppm, foliar application to potted Chinese cabbage, 6 days after application
# [2] = system: Laodelphax striatellus; experiment: Insecticidal test on Laodelphax striatellus; settings: 500 ppm, rice seedlings dipped 30 seconds, 3rd-instar larvae, 8 days after inoculation
# Description: The condensed heterocyclic compounds having a bridgehead nitrogen atom represented by the general formula (1) of the present invention or salts thereof were separately dispersed in water and diluted to 500 ppm. Rice plant seedlings (variety: Nihonbare) were dipped in the agrochemical dispersions for 30 seconds. After air-dried, each seedling was put into a separate glass test tube and inoculated with ten 3rd-instar larvae of L. striatellus, and then the glass test tubes were capped with cotton plugs. At 8 days after the inoculation, the numbers of surviving larvae and dead larvae of L. striatellus were counted, the corrected mortality rate was calculated according to the formula shown below, and the insecticidal efficacy was evaluated according to the criteria of Test Example 1.
# [3] = system: Plutella xylostella; experiment: Insecticidal test on Plutella xylostella; settings: 500 ppm, Chinese cabbage seedlings with laid eggs dipped about 30 seconds, 6 days after dip treatment, 25° C.
# Description: Adults of P. xylostella were released onto Chinese cabbage seedlings and allowed to lay eggs thereon. At 2 days after the release of the adults, the Chinese cabbage seedlings with laid eggs were dipped for about 30 seconds in agrochemical formulations diluted to 500 ppm, each of which contained a different kind of condensed heterocyclic compound having a bridgehead nitrogen atom represented by the general formula (1) of the present invention as an active ingredient. After air-dried, the seedlings were kept in a thermostatic chamber at 25° C. At 6 days after the dip treatment, the number of hatched larvae per plot was counted, the mortality rate of P. xylostella was calculated according to the formula shown below, and the insecticidal efficacy was evaluated according to the criteria of Test Example 1. This test was conducted in triplicate using 10 adults of P. xylostella per plot.
# [4] = system: adults of Ctenocephalides felis; experiment: Assay for oral parasiticidal activity against adults of Ctenocephalides felis; settings: 50 ppm in bovine blood, oral via feeder, following day
# Experimental: Newly-emerged adults of C. felis were placed into test cages (10 adults per test cage). DMSO diluted solutions of various compounds of the present invention were added to aliquots of bovine blood at the final concentration of 50 ppm and orally administered to the adults of C. felis using a feeder. The mortality rate was examined on the following day. Aberrant adults were regarded as the dead.
# [5] = system: nymphs of Rhipicephalus sanguineus; experiment: Assay for transdermal parasiticidal activity against nymphs of Rhipicephalus sanguineus; settings: 100 ppm applied to inside of sample bottles, two days later
# [6] = system: L1 stage larvae of D. immitis; experiment: Larval motility assay on Dirofilaria immitis; settings: 50 ppm, 3 days, relative to DMSO only
# Experimental: Five hundred L1 stage larvae of D. immitis were diluted in a predetermined conditioned medium and introduced into each well of a 96-well plate. DMSO diluted solutions of various compounds of the present invention were added at the final concentration of 50 ppm to the wells of the 96-well plate. The plate was allowed to stand for 3 days, and then larval motility was examined. The percent motility inhibition in the wells of each treatment was calculated relative to the wells of treatment with DMSO only.
# [7] = system: L1 stage larvae of H. contortus; experiment: Larval motility assay on Haemonchus contortus; settings: 50 ppm, 4 days, relative to DMSO only
# Experimental: Dimethyl sulfoxide (DMSO) diluted solutions of various compounds of the present invention were added at the final concentration of 50 ppm to the wells of a 96-well plate containing a predetermined conditioned medium. Twenty L1 stage larvae of H. contortus were introduced into each well of the 96-well plate. The plate was allowed to stand for 4 days, and then larval motility was examined. The percent motility inhibition in the wells of each treatment was calculated relative to the wells of treatment with DMSO only.
Structure (SMILES),control efficacy (control rate) activity level [1],insecticidal efficacy (corrected mortality rate) activity level [2],insecticidal efficacy (mortality rate) activity level [3],mortality rate [4] [%],mortality rate [5] [%],percent motility inhibition [6] [%],percent motility inhibition [7] [%]
"CCS(=O)(=O)c1cc(C=NOCCSC)cnc1-c1nc2cc(C(F)(F)F)ccn2n1 (single isomer, unassigned) [Compound 1-47]",A (the control rate is 100%.),A (the control rate is 100%.),A (the control rate is 100%.),≥ 50,≥ 50,–,–
CCS(=O)(=O)c1cc(C=NOCCS(C)(=O)=O)cnc1-c1nc2cc(C(F)(F)F)ccn2n1 [Compound 1-49],A (the control rate is 100%.),A (the control rate is 100%.),A (the control rate is 100%.),≥ 50,–,≥ 50,–
"CCSCCON=Cc1cnc(-c2nc3cc(C(F)(F)F)ccn3n2)c(S(=O)(=O)CC)c1 (single isomer, unassigned) [Compound 1-50]",A (the control rate is 100%.),A (the control rate is 100%.),A (the control rate is 100%.),≥ 50,≥ 50,≥ 50,≥ 50
